Record: PubChem BioAssay AID504764 (Drosophila RNAi Screening Center, 2011)
The screen tested about 22,000 reagents; this is a random part of those with a known target gene and a result. Of all reagents, 403 (1.9%) were called active. 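Unnormalised raw counts per well; ratio z-scores behind the hit calls and whether each hit raises or lowers signal are not deposited.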 No sequences are given here. Not given: the amount of reagent.

- Purpose: 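Knock-downs that raise or lower a Notch target reporter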 (primary screen)
- Cell system: Drosophila Kc167 cells
- Knock-down reagent: long dsRNA against Drosophila genes
- Time to read-out: about 5 days (4 days dsRNA, then 24 h after transfection)
- Conditions: transfection of constitutively active membrane-tethered Notch lacking the extracellular domain, read 24 h later
- Measured: 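Light from a Notch-responsive E(spl)m3 luciferase reporter under active Notch, with control-promoter and no-Notch reporter wells to normalise; raw counts from paired wells a and b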
- Reading the numbers: induced reporter light, run 1, well a and induced reporter light, run 1, well b: higher = more light from the Notch target reporter with active Notch; control promoter light, run 1, well a and control promoter light, run 1, well b: higher = more light from the viral control promoter (cell number, transfection, viability); uninduced reporter light, run 1, well a: higher = more light from the Notch target reporter without active Notch
- Call rule: 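Wells with low control signal or poorly matching duplicates excluded; duplicates averaged; per source plate, z beyond ±2 for induced/control log2 ratio or beyond ±1.8 for induced/uninduced marks a hit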
- Calls: active = modifier hit (raised or lowered Notch signal); inactive = not a hit

What is on record for rec (GeneID 49241) [DRSC14998]?
induced reporter light, run 1, well a: 2.42e5; induced reporter light, run 1, well b: 2.93e5; control promoter light, run 1, well a: 2.82e5; control promoter light, run 1, well b: 2.74e5; uninduced reporter light, run 1, well a: 18120; call: inactive

What is on record for rec (GeneID 49241) [DRSC15656]?
induced reporter light, run 1, well a: 2.50e5; induced reporter light, run 1, well b: 2.72e5; control promoter light, run 1, well a: 2.87e5; control promoter light, run 1, well b: 2.86e5; uninduced reporter light, run 1, well a: 20720; call: inactive

With Sodh1 (GeneID 40836) [DRSC12605], how do the results read?
induced reporter light, run 1, well a: 1.56e5; induced reporter light, run 1, well b: 1.24e5; control promoter light, run 1, well a: 1.03e5; control promoter light, run 1, well b: 96865; uninduced reporter light, run 1, well a: 11860; call: inactive

How did the screen score CG5808 (GeneID 42957) [DRSC14124]?
induced reporter light, run 1, well a: 96645; induced reporter light, run 1, well b: 1.02e5; control promoter light, run 1, well a: 93600; control promoter light, run 1, well b: 1.10e5; uninduced reporter light, run 1, well a: 9040; call: inactive

How did the screen score CG13255 (GeneID 50109) [DRSC11702]?
induced reporter light, run 1, well a: 1.28e5; induced reporter light, run 1, well b: 1.08e5; control promoter light, run 1, well a: 65525; control promoter light, run 1, well b: 62920; uninduced reporter light, run 1, well a: 10920; call: inactive

For how (GeneID 42596) [DRSC16966], how do the results read?
induced reporter light, run 1, well a: 31305; induced reporter light, run 1, well b: 27935; control promoter light, run 1, well a: 31375; control promoter light, run 1, well b: 30495; uninduced reporter light, run 1, well a: 5055; call: inactive

With CG13667 (GeneID 38956) [DRSC10028], what was measured?
induced reporter light, run 1, well a: 85710; induced reporter light, run 1, well b: 80120; control promoter light, run 1, well a: 77870; control promoter light, run 1, well b: 21705; uninduced reporter light, run 1, well a: 9095; call: inactive

With Cdk9 (GeneID 37586) [DRSC04601], what was measured?
induced reporter light, run 1, well a: 1.49e5; induced reporter light, run 1, well b: 1.22e5; control promoter light, run 1, well a: 1.28e5; control promoter light, run 1, well b: 1.28e5; uninduced reporter light, run 1, well a: 7905; call: active

Limited to “control promoter light, run 1, well b”, for 2 of the entries above:
Sodh1 (GeneID 40836) [DRSC12605]	96865
CG5808 (GeneID 42957) [DRSC14124]	1.10e5

The list goes on.
What did the screen give for BORCS5 (GeneID 32145) [DRSC19427]?
induced reporter light, run 1, well a: 1.58e5; induced reporter light, run 1, well b: 1.72e5; control promoter light, run 1, well a: 2.58e5; control promoter light, run 1, well b: 1.87e5; uninduced reporter light, run 1, well a: 12595; call: inactive

With CG7448 (retired record) (GeneID 40440) [DRSC11828], what was measured?
induced reporter light, run 1, well a: 1.12e5; induced reporter light, run 1, well b: 1.13e5; control promoter light, run 1, well a: 62950; control promoter light, run 1, well b: 87725; uninduced reporter light, run 1, well a: 8365; call: inactive

What is on record for bsk (GeneID 44801) [DRSC03499]?
induced reporter light, run 1, well a: 1.96e5; induced reporter light, run 1, well b: 1.95e5; control promoter light, run 1, well a: 1.65e5; control promoter light, run 1, well b: 1.50e5; uninduced reporter light, run 1, well a: 18010; call: inactive

What is on record for CG6497 (GeneID 39924) [DRSC10654]?
induced reporter light, run 1, well a: 2.50e5; induced reporter light, run 1, well b: 2.78e5; control promoter light, run 1, well a: 3.26e5; control promoter light, run 1, well b: 2.65e5; uninduced reporter light, run 1, well a: 12238; call: inactive

For CG6497 (GeneID 39924) [DRSC21469], what does the deposit list?
call: inactive
